Read-outs that look alike come from different tables or passages of the source. These are yes or no findings as the source states them, for the method shown. Binding seen in cells or lysates may run through a third protein. Some results given as binding are weak or reduced against the parent protein; the word gives no strength.

Protein sequences, listed by entry. Tags and fused reporters are not part of them. Lines headed by an entry give the natural chain unless they say otherwise; changes in a name come on top.
UniProt Q92841, whole entry: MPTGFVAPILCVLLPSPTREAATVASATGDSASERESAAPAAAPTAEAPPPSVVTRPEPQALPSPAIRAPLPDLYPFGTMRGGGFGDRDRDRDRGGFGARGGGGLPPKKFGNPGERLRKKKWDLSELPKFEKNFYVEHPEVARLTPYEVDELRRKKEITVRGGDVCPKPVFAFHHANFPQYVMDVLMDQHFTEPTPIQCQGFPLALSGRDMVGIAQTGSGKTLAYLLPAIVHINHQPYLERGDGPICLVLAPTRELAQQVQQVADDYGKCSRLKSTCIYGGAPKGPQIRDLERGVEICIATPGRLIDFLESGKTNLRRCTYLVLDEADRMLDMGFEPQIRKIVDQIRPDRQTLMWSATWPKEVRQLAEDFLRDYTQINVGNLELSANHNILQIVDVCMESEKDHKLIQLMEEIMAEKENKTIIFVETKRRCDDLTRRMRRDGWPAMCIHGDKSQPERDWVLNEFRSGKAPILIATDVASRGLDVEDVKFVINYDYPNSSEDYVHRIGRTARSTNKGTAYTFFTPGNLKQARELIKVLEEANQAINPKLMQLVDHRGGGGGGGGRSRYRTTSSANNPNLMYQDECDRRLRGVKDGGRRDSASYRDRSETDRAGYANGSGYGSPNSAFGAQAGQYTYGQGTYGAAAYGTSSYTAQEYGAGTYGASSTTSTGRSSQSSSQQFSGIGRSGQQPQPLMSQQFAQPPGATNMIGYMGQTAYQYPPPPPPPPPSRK

The results in this text go back to publication doi:10.1101/676353.

Assay in all cases: co-IP
Assay [1] addresses RELA (endogenous) (human (endogenous in 293T-LTR-GFP)) (UniProt Q04206).
For assay [2] the target is unchanged. The source holds these as a separate data set.
Assay [3] shares this target. The source holds these as a separate data set.
Assay [4] has as its target TAX mutated form M22 (G137A, L138S) (HTLV-1) (UniProt P03409).
Assay [5] has as its target TAX of HTLV-1 (wild type) (HTLV-1) (UniProt P03409).
Assay [6] deals with DDX17 (endogenous, isoforms p72 and p82) (human (endogenous in 293T-LTR-GFP)) (UniProt Q92841).

“DDX17 (endogenous, isoforms p72 and p82) (from UniProt Q92841 1-729)”: the binding result was “binds” in assay [1]; “binds” in assay [2]; “binds” in assay [3]; “no binding” in assay [4]; “binds” in assay [5].
Take “RELA (endogenous) (from UniProt Q04206 1-551)”: the binding result in assay [6] is listed as “binds”; in assay [4] it was “no binding”; in assay [5], “binds”.
Regarding “TAX mutated form M22 (G137A, L138S) (from UniProt P03409 1-353)”, the binding entry in assay [6] was “no binding”.
Regarding “TAX of HTLV-1 (wild type) (from UniProt P03409 1-353)”, in assay [6], the binding result is “binds”.
